Patent US20090042820A1, “Tubulin Binding Anti Cancer Agents And Prodrugs Thereof” (Threshold Pharmaceuticals, Inc., priority 2004, published 2009)
Some of these results come from one statement about several compounds together. Some ranges recur; such a range may be that of the whole group of compounds.

test: Metabolic stability in mouse liver microsomes; format: in vitro ADME; settings: summary statement
Protocol: An in vitro assessment of metabolic stability of compounds was performed using commercially available mouse liver microsomes (MLM) containing cytochrome P450 enzymes (Cedra Corp, Austin, Tex.). A solutions (5 μM) of a compound and microsomes (1 mg/mL protein) was prepared. P450 enzymatic reactions were initiated by adding an NADPH solution. Enzymatic reactions were carried out in a thermostated shaking water bath kept at 37° C. Fifty μl of the reaction mixture was withdrawn immediately and 30 minutes after the addition of the NADPH solution and the proteins were precipitated with acetonitrile. The clear supernatant was analyzed by reversed phase LC-MS/MS (Applied Biosystems API-3000 with Hypersil-BDS C18 column and gradient elution), with internal standard area ratio quantification for the amount the compound remaining as shown in table 4.

| SMILES | % unchanged in a mouse liver microsomal stability study |
| --- | --- |
| COc1cc(C(=O)c2n[nH]c3c(C#CCO)c(OC)ccc23)cc(OC)c1OC [Compound 30] | 80-100% |
| COc1cc(C(=O)c2n[nH]c3c(C(N)=O)c(OC)ccc23)cc(OC)c1OC [Compound 60] | 80-100% |
| COc1cc(C(=O)c2n[nH]c3c(C#CC(C)O)c(OC)ccc23)cc(OC)c1OC (stereo not drawn) [Compound 66] | 80-100% |
